Measurements as given in paper PMC12721899.
These are yes or no findings as the source states them, for the method shown. Binding seen in cells or lysates may run through a third protein. Some entries that bind do so weakly or less than the wild type.

Amino acid sequences for entries named in this document (tags omitted). Residues count along the entry.
UniProt P19491, residues 22-883: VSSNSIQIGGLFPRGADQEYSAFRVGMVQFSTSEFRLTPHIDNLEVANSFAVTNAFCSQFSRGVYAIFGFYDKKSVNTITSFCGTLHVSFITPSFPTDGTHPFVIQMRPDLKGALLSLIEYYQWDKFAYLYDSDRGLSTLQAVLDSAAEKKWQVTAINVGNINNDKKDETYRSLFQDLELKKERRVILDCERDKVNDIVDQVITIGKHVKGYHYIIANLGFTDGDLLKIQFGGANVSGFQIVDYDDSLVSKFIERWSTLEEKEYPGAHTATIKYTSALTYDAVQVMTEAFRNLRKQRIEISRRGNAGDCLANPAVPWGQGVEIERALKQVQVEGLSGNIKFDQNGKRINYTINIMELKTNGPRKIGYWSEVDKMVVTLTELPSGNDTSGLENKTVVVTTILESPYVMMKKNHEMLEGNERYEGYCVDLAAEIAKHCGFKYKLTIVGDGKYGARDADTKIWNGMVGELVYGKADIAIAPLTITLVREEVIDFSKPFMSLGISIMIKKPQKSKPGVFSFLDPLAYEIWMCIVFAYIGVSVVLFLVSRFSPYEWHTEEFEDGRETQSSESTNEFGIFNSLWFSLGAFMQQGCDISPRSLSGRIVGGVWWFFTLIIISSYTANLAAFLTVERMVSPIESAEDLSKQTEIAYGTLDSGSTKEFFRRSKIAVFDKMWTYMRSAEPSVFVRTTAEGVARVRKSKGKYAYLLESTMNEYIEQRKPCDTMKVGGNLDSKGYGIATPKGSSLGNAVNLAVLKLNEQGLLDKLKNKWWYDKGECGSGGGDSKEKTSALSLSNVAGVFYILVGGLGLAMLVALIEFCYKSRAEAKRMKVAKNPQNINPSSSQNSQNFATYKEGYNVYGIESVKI
UniProt P19492, residues 23-888: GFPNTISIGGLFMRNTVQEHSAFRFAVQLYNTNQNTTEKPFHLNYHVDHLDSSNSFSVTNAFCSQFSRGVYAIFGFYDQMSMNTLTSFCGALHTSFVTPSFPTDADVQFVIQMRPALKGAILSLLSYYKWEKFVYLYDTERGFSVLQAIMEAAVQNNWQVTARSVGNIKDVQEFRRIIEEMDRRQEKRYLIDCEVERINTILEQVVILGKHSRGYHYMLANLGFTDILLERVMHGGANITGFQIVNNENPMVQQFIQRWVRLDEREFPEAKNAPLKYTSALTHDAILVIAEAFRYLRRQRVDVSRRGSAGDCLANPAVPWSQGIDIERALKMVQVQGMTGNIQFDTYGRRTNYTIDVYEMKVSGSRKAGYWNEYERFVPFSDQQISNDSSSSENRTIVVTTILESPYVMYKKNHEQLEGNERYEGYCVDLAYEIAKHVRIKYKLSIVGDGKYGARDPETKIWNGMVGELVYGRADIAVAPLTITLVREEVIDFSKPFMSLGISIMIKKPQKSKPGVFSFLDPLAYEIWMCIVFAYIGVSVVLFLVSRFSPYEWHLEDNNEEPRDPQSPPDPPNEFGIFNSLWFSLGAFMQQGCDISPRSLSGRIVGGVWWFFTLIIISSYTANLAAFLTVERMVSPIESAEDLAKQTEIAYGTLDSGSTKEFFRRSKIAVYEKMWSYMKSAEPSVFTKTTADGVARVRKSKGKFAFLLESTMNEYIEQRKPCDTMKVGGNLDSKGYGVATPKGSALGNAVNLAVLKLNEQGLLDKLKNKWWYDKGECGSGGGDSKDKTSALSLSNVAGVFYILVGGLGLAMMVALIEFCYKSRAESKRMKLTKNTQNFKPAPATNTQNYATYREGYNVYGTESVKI

Biological target: GluA2 (rat (endogenous in dorsal spinal cord)) (UniProt P19491)
Assay: co-IP; protein extracts of rat dorsal spinal cord (L4-L6); rabbit anti-GluA2 antibody (or IgG) on protein G agarose beads, 4°C overnight; blots with mouse anti-GluA2 and mouse anti-GluA3; sham and SNL rats, intrathecal vehicle or 10 μg pregabalin, control or Gria3-expressing lentiviruses

## GluA3 (from UniProt P19492 23-888) (receptor)
  binding: binds
